Measurements: publication doi:10.1101/2024.06.05.597537
These are yes or no findings as the source states them, for the method shown. For some of these results: In cells and extracts the contact can be indirect. Some entries that bind do so weakly or less than the wild type.

Sequences of proteins named here, by UniProt entry; tags and fusion partners are left off. A change or cut given only in a name is not applied to a line headed by its entry.
UniProt P19484, whole entry: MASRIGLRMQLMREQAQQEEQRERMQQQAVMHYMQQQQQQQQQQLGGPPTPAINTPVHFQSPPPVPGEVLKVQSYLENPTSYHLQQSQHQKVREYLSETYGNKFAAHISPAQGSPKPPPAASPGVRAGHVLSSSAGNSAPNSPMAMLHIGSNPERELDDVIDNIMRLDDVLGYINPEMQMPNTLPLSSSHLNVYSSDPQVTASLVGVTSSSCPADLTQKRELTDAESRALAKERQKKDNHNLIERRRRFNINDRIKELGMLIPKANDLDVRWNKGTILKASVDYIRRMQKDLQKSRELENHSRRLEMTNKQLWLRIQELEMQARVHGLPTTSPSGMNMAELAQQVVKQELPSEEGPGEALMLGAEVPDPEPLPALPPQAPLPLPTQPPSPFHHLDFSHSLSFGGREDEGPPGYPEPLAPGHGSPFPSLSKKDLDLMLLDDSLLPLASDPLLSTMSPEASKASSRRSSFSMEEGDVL
UniProt Q9NQU5, whole entry: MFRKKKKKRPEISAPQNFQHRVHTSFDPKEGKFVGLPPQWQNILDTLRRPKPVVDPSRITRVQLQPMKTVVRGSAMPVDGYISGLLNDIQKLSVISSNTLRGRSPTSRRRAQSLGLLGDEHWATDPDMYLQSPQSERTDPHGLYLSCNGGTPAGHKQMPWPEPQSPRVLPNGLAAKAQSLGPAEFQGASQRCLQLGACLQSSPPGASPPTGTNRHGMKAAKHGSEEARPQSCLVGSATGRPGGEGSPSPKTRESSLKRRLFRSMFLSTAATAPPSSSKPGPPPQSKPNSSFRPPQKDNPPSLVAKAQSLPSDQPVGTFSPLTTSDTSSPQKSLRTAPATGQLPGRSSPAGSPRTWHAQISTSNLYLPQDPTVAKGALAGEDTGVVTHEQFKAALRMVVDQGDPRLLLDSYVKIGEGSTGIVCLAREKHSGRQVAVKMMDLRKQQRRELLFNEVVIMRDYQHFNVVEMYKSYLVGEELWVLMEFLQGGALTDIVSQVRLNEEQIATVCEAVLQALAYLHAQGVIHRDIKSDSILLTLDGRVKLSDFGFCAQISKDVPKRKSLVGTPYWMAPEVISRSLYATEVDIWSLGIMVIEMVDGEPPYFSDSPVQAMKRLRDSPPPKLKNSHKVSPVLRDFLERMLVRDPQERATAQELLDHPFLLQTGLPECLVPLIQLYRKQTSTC

Experiments:
[1] = target: GFP-TFEB WT (Transcription Factor EB) (human) (UniProt P19484); assay: co-IP
GFP-TFEB S467A (human) = GFP-TFEB S467A (human) (UniProt P19484); assay: fluorescence cross-correlation spectroscopy
[2] = target: GFP-TFEB WT (Transcription Factor EB) (human) (UniProt P19484); assay: fluorescence cross-correlation spectroscopy

| Substance | binding [1] | binding (GFP-TFEB S467A (human)) | binding [2] |
| --- | --- | --- | --- |
| Flag-PAK6 WT (from UniProt Q9NQU5 1-681) (enzyme) | binds |  |  |
| mCherry-tagged PAK6 S531N (constitutively active) (from UniProt Q9NQU5 1-681) (enzyme) |  | no binding |  |
| mCherry-tagged PAK6 WT (p21 activated kinase 6) (from UniProt Q9NQU5 1-681) (enzyme) |  | no binding | binds |
